From publication PMC10538752 come the findings set out here.

Protein sequences, listed by entry. Tags and fused reporters are not part of them. Residues count along the entry.
UniProt P84077: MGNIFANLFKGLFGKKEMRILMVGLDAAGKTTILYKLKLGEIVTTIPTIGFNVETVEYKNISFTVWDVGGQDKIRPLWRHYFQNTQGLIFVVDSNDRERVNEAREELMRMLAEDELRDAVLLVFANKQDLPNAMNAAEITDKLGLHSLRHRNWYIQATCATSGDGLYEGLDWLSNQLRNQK
UniProt P18085: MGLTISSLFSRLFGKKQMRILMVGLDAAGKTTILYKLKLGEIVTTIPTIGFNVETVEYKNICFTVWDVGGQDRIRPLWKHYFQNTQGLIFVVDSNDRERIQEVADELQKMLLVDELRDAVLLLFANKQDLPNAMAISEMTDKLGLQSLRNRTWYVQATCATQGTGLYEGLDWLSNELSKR
UniProt P61204: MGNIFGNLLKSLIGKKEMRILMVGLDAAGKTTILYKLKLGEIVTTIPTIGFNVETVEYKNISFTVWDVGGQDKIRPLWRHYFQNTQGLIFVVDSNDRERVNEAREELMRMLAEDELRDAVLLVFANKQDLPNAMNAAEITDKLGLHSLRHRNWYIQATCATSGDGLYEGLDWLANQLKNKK
UniProt P62330: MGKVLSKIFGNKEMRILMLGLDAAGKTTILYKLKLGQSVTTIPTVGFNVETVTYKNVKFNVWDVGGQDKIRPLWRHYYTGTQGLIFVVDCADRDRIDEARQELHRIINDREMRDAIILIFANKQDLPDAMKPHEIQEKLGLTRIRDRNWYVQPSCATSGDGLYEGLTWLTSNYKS
UniProt P84085: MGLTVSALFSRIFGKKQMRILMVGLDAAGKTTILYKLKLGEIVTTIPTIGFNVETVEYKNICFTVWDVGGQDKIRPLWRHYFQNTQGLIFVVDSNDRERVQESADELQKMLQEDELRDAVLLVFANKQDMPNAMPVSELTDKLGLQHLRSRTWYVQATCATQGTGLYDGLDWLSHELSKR
UniProt P03313, residues 1101-1429: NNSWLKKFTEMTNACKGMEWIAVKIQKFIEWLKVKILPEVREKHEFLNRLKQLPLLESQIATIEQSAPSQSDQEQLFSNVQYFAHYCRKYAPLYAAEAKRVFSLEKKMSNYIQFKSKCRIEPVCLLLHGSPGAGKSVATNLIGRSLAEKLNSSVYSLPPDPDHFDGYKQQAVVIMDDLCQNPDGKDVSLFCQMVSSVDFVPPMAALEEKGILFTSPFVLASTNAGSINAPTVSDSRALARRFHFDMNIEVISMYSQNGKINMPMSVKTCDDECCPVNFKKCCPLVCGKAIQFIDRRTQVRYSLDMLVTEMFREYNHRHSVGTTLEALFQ
UniProt P03300, residues 1128-1456: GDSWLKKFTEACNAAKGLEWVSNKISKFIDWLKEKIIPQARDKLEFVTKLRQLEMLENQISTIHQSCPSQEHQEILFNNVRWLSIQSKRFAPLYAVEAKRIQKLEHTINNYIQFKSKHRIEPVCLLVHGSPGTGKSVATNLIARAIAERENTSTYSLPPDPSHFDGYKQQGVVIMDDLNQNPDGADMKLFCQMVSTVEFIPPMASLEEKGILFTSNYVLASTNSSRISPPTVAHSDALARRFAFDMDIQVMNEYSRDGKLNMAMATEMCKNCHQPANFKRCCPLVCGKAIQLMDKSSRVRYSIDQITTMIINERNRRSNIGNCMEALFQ

The target in assay [1] is human Arf1 fused to Venus fluorescent protein (human) (UniProt P84077). Put plainly: co-IP.
For assay [2], the target named is human Arf4 fused to EGFP (human) (UniProt P18085). Put plainly: co-IP; […] (3:1), ~18 h; […] (0.1 M Tris-HCl pH 7.8, 0.5% Triton X100); […].
In assay [3] the target is human Arf3 fused to EGFP (human) (UniProt P61204). Described as above.
The target in assay [4] is human Arf6 fused to EGFP (human) (UniProt P62330). The assay is described as above.
Assay [5] deals with human Arf5 fused to EGFP (human) (UniProt P84085). Described as above.

No constants are given. Whether binding was seen depends on the method and setting. In cells and extracts the contact can be indirect.

As to “2C of Coxsackie virus B3, made in infected cells (from UniProt P03313 1101-1429)”, the binding entry in assay [1] is “no binding”.

In the case of “poliovirus 2C, wt, expressed from plasmid pM1-2C (from UniProt P03300 1128-1456)”, the binding result in assay [2], in assay [3], in assay [4] and in assay [5] was “no binding” in each case.
